Experimental data as given in patent US7626030B2, “Compounds and methods of use” (Amgen Inc., priority 2004, dated 2009).
Some results were stated once for a whole list of compounds, not compound by compound.

Sequences of proteins named here, by UniProt entry; tags and fusion partners are left off. Residues count along the entry.
UniProt P16056, 25-1379: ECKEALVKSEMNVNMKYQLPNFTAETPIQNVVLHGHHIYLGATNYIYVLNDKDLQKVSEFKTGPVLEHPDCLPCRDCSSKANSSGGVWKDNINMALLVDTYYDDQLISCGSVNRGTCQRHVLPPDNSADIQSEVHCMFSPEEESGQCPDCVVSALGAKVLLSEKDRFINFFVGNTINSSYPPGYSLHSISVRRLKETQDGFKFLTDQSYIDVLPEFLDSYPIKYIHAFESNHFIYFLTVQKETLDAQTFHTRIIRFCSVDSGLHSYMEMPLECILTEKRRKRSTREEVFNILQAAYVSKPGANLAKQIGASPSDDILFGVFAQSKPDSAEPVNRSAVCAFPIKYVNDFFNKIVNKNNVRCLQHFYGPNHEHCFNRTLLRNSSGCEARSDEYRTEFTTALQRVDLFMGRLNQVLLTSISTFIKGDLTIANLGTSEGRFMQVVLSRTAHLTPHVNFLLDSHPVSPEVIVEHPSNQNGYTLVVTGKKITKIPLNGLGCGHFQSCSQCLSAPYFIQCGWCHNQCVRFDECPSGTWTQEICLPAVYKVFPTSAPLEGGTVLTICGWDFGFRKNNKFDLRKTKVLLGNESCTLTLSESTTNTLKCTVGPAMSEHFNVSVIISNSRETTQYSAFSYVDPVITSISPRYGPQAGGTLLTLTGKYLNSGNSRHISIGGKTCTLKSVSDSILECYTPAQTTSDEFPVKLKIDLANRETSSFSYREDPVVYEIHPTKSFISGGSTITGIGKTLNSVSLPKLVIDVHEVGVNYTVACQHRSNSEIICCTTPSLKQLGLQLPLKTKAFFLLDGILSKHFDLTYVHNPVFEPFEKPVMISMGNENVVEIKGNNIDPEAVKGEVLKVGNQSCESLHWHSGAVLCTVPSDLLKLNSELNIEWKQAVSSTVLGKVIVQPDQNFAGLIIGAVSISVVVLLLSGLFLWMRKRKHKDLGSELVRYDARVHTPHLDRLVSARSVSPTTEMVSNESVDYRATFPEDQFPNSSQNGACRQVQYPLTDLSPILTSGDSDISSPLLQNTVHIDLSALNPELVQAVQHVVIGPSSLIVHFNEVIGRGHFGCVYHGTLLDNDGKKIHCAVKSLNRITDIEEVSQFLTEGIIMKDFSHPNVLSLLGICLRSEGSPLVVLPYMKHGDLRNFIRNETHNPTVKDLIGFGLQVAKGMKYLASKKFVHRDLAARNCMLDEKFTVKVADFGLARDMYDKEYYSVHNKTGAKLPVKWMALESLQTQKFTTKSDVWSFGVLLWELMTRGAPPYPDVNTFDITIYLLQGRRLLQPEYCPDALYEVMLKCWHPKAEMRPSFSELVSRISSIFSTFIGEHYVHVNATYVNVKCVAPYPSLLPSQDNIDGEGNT

Biological target: T1, c-Met in CT26 cells (Mus musculus, UniProt P16056)
T1 construct: host or cells: CT26 cells
Assay: c-Met cell-based autophosphorylation assay, CT26 cells
Details: HGF-stimulated

Structure (SMILES)	IC50
COc1cc2c(Oc3ccc4nc(NC(=O)c5ccccc5)sc4c3)ccnc2cc1OCCCN(C)C [Example 102, N-(6-((7-((3-(dimethylamino)propyl)oxy)-6-(methoxy)-4-quinolinyl)oxy)-1,3-benzothiazol-2-yl)benzamide]	< 1000 nM
COc1cc2c(Oc3ccc4nc(NC(=O)c5ccsc5)sc4c3)ccnc2cc1OCCN(C)C [Example 101, N-(6-((7-((2-(dimethylamino)ethyl)oxy)-6-(methoxy)-4-quinolinyl)oxy)-1,3-benzothiazol-2-yl)-3-thiophenecarboxamide]	< 1000 nM
Cc1cc(Oc2ccc3nc(NC(=O)Cc4ccccc4)sc3c2)ccn1 [Example 82, N-[6-(2-Methyl-pyridin-4-yloxy)-benzothiazol-2-yl]-2-phenyl-acetamide]	< 1000 nM
COc1cc2nccc(Oc3ccc4nc(NC(=O)c5ccc(Cl)cc5)sc4c3)c2cc1OC [Example 89, 4-Chloro-N-[6-(6,7-dimethoxy-quinolin-4-yloxy)-benzothiazol-2-yl]-benzamide]	< 1000 nM
COc1cc2nccc(Oc3ccc4nc(NC(=O)c5ccsc5)sc4c3)c2cc1OC [Example 46, Thiophene-3-carboxylic acid [6-(6,7-dimethoxy-quinolin-4-yloxy)-benzothiazol-2-yl]-amide]	< 1000 nM
COc1cc2c(Oc3ccc4nc(NC(=O)c5cccs5)sc4c3)ccnc2cc1OCCN(C)C [Example 100, N-(6-((7-((2-(dimethylamino)ethyl)oxy)-6-(methoxy)-4-quinolinyl)oxy)-1,3-benzothiazol-2-yl)-2-thiophenecarboxamide]	< 1000 nM
COc1cc2c(Oc3ccc4nc(NC(=O)c5ccsc5)sc4c3)ccnc2cc1OCCCN1CCOCC1 [Example 104, N-(6-((6-(methoxy)-7-((3-(4-morpholinyl)propyl)oxy)-4-quinolinyl)oxy)-1,3-benzothiazol-2-yl)-1-3-thiohenecarboxamide]	< 1000 nM
COc1cc2nccc(Oc3ccc4oc(Nc5ccc(Cl)cc5)nc4c3)c2cc1OC [Example 96, 5-((6,7-bis(methoxy)-4-quinolinyl)oxy)-N-(4-chlorophenyl)-1,3-benzoxazol-2-amine]	< 1000 nM
O=C(Cc1ccccc1)Nc1nc2ccc(Oc3ccnc4cc(C(F)(F)F)ccc34)cc2s1 [Example 71, 2-Phenyl-N-[6-(7-trifluoromethyl-quinolin-4-yloxy)-benzothiazol-2-yl]-acetamide]	< 1000 nM
COc1cc2nccc(Oc3ccc4nc(NC(=O)c5cccc(C)c5)sc4c3)c2cc1OC [Example 36, N-[6-(6,7-Dimethoxy-quinolin-4-yloxy)-benzothiazol-2-yl]-3-methyl-benzamide]	< 1000 nM
